Data as given in PubChem BioAssay AID743454 (Peter MacCallum Cancer Centre, 2014).

Test: 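Knock-downs lowering viability or raising caspase 3/7 activity in vorinostat-treated resistant cells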 (primary screen)
Cells: human HCT116-VR colon cancer cells, selected for vorinostat resistance
Reagent: siRNA pool against human genes, 40 nM siRNA pool
Duration: vorinostat for 24 h, read-out about 72 h after transfection
Conditions: vorinostat at 2.5 µM final
Measurement: 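Cell viability by CellTiter-Fluor and caspase 3/7 activity by luminescence, each scaled to mock wells per plate, duplicates averaged, then robust z-scored over all plates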
Direction: viability robust z-score: higher = more viable cells than screen typical; caspase robust z-score: higher = more caspase 3/7 activity than screen typical
Rule for the call: 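Hits are knock-downs in viability class RV1/RV2 or caspase class CA1/CA2, excluding ones that killed cells in the no-drug cell-count arm; hits then retested with single siRNAs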
The deposit covers about 18,000 reagents; below is a part drawn at random. 450 of all reagents (2.5%) count as active. 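Single biological run; no consistent viability z cut-off exists, so the class columns, not z-scores, define the calls.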 A number with no mark means an inactive call. No sequences are given here.

RASA4 (RAS p21 protein activator 4) → viability hit class: no change; caspase hit class: no change; viability robust z-score: -0.72; caspase robust z-score: 0.44
MT2A (metallothionein 2A) → viability hit class: no change; caspase hit class: no change; viability robust z-score: -0.24; caspase robust z-score: -0.35
DEGS2 (delta 4-desaturase, sphingolipid 2) → viability hit class: no change; caspase hit class: no change; viability robust z-score: 0.63; caspase robust z-score: 0.5
RYR1 (ryanodine receptor 1) → viability hit class: no change; caspase hit class: no change; viability robust z-score: -0.62; caspase robust z-score: 0.22
IRAK2 (interleukin 1 receptor associated kinase 2) → viability hit class: no change; caspase hit class: no change; viability robust z-score: 0.17; caspase robust z-score: 1.02

A stretch from the list above, for reference:
MT2A (metallothionein 2A) → viability hit class: no change; caspase hit class: no change; viability robust z-score: -0.24; caspase robust z-score: -0.35
DEGS2 (delta 4-desaturase, sphingolipid 2) → viability hit class: no change; caspase hit class: no change; viability robust z-score: 0.63; caspase robust z-score: 0.5

The results go on.
LCE2C (late cornified envelope 2C) → viability hit class: no change; caspase hit class: no change; viability robust z-score: -0.64; caspase robust z-score: 1.73
GAS1 (growth arrest specific 1) → viability hit class: no change; caspase hit class: no change; viability robust z-score: 1.22; caspase robust z-score: 0.83
CA10 (carbonic anhydrase 10 (inactive)) → viability hit class: no change; caspase hit class: no change; viability robust z-score: -1.41; caspase robust z-score: -0.46
LCK (LCK proto-oncogene, Src family tyrosine kinase) → viability hit class: no change; caspase hit class: no change; viability robust z-score: -1.3; caspase robust z-score: 0.64
CEACAM6 (CEA cell adhesion molecule 6) → viability hit class: no change; caspase hit class: no change; viability robust z-score: -1.5; caspase robust z-score: 0.12
ECE1 (endothelin converting enzyme 1) → viability hit class: no change; caspase hit class: no change; viability robust z-score: 0.75; caspase robust z-score: 1.25
CFAP100 (cilia and flagella associated protein 100) → viability hit class: no change; caspase hit class: no change; viability robust z-score: -0.26; caspase robust z-score: 2.77
TNFSF12 (TNF superfamily member 12) → viability hit class: no change; caspase hit class: no change; viability robust z-score: -0.5; caspase robust z-score: -0.94
COQ5 (coenzyme Q5, methyltransferase) → viability hit class: no change; caspase hit class: no change; viability robust z-score: 0.28; caspase robust z-score: 0.92
